Where a name gives a salt, the structure may show the parent alone. Some of the results follow. The calls rarely recur for the same compound in another form.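 Kinases were expressed as nanoluciferase fusions in K562 cells and luminescence was read every 4 h between 2 and 18 h as percent of control, DMSO set to 100% and a positive control to 0%. A time point counts as decreased when the signal drops significantly (2 sigma). The hit call is the authors' own, does not follow from the count of time points alone, and its rule is not shown.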
Assays:
Settings in all cases: K562; 2-18 h
RET = RET (UniProt P07949); experiment: kinase-Nluc reporter destabilization hit call (1 = scored as downregulated) (binary); higher = compound decreases kinase abundance
[1] = target: RET_M918T (clone: RET_mut) (UniProt P07949); experiment: as above
RIOK1 = RIOK1 (UniProt Q9BRS2); experiment: as above
RIPK1 = RIPK1 (UniProt Q13546); experiment: as above
RIPK2 = RIPK2 (UniProt O43353); experiment: as above
ROR2 = ROR2 (UniProt Q01974); experiment: as above
RPS6KA1 = RPS6KA1 (UniProt Q15418); experiment: as above
SPHK1 = SPHK1 (UniProt Q9NYA1); experiment: as above
SRC = SRC (UniProt P12931); experiment: as above
STK24 = STK24 (UniProt Q9Y6E0); experiment: as above
STK38 = STK38 (UniProt Q15208); experiment: as above
SYK = SYK (UniProt P43405); experiment: as above
TEC = TEC (UniProt P42680); experiment: as above
TYK2 = TYK2 (UniProt P29597); experiment: as above
ULK3 = ULK3 (UniProt Q6PHR2); experiment: as above
YES1 = YES1 (UniProt P07947); experiment: as above
ZAK = ZAK (UniProt Q9NYL2); experiment: as above
ZAP70 = ZAP70 (UniProt P43403); experiment: as above
ABL1 = ABL1 (UniProt P00519); experiment: number of time points (of 5) at which kinase-Nluc abundance scored as decreased, DMSO-normalised (count); higher = more persistent destabilization
AKT1 = AKT1 (UniProt P31749); experiment: as above

Amino acid sequences for entries named in this document (tags omitted). A change or cut given only in a name is not applied to a line headed by its entry.
UniProt Q9BRS2: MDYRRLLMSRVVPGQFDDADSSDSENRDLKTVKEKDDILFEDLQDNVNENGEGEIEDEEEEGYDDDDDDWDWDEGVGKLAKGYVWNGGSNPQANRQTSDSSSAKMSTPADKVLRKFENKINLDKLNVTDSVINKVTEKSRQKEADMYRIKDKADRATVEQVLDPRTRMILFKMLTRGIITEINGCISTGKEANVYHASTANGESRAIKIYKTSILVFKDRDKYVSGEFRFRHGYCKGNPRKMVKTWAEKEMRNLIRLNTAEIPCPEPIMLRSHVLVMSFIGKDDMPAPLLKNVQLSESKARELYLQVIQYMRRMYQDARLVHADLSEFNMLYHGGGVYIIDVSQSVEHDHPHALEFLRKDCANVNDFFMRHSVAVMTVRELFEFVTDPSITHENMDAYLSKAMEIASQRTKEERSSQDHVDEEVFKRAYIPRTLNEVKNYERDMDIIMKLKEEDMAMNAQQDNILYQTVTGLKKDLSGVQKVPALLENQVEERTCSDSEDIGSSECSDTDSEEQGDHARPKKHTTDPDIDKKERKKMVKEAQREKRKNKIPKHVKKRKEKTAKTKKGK
UniProt Q13546: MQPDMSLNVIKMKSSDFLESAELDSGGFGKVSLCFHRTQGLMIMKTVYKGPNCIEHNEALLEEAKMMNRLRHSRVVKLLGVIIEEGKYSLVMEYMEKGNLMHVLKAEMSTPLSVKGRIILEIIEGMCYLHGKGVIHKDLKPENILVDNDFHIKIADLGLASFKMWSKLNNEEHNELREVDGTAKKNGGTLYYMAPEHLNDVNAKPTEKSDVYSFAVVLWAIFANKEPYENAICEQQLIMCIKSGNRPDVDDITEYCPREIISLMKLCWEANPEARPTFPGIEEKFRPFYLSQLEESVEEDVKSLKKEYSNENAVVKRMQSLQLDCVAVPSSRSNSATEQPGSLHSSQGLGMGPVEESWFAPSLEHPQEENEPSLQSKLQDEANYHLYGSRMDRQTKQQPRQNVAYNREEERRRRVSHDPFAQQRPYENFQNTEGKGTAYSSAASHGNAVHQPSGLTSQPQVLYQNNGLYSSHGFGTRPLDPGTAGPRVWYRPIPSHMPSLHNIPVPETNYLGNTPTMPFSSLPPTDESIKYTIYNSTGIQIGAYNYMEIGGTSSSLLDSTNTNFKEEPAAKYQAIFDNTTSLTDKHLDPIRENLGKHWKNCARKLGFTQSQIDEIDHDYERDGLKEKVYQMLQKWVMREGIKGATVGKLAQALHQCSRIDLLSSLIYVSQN
UniProt Q01974, whole entry: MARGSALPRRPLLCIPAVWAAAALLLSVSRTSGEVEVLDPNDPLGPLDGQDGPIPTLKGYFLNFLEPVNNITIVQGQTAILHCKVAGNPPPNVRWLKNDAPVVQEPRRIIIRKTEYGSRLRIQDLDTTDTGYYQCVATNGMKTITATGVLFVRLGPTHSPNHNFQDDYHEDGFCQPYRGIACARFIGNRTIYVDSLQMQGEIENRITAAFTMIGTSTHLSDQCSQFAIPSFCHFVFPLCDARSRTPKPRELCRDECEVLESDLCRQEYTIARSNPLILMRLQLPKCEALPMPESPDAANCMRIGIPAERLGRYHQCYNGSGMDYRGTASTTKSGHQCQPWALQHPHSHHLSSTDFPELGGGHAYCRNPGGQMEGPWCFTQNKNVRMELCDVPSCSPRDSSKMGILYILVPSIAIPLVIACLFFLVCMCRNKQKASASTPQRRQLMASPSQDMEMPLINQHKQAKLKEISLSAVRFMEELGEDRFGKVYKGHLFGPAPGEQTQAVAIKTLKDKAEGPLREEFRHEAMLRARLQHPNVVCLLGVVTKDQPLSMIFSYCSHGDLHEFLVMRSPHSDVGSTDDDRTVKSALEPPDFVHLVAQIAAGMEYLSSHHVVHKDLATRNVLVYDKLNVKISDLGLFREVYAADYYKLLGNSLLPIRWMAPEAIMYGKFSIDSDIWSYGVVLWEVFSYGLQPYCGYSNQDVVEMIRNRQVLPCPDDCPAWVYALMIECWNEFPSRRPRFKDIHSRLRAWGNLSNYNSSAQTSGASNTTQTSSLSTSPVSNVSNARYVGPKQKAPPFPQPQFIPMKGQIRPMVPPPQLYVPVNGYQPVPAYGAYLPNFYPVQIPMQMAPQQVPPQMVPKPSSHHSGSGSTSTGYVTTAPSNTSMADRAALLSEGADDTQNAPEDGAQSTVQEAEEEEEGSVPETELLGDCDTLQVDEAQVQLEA
UniProt Q9Y6E0: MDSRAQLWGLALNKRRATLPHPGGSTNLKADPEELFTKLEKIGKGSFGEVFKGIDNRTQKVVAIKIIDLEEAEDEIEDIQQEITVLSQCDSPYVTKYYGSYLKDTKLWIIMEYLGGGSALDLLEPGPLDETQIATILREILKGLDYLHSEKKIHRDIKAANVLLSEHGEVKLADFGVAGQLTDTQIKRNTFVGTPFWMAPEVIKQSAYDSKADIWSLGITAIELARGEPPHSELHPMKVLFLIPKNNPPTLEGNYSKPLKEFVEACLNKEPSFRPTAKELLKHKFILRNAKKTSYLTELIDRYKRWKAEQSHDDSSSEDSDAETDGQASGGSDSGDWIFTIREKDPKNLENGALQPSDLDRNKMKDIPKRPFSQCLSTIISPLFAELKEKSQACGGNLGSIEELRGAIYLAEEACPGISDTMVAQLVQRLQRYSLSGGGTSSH
UniProt P42680: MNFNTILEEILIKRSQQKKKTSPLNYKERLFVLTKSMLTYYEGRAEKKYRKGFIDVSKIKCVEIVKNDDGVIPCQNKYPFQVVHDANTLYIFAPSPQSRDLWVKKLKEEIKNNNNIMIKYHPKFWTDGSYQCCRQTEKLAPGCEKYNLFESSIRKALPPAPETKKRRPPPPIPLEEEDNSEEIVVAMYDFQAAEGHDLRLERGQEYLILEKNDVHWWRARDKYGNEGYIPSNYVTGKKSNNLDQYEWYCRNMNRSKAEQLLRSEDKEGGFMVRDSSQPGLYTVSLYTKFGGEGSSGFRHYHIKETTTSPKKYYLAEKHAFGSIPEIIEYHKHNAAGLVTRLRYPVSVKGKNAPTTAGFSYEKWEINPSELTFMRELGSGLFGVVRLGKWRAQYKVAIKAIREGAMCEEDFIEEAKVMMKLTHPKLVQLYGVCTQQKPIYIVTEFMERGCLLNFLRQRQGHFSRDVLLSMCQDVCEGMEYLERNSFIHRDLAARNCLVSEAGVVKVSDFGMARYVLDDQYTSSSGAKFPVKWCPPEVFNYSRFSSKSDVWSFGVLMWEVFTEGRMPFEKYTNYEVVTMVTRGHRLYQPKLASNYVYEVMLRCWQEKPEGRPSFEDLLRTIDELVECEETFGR
UniProt P29597: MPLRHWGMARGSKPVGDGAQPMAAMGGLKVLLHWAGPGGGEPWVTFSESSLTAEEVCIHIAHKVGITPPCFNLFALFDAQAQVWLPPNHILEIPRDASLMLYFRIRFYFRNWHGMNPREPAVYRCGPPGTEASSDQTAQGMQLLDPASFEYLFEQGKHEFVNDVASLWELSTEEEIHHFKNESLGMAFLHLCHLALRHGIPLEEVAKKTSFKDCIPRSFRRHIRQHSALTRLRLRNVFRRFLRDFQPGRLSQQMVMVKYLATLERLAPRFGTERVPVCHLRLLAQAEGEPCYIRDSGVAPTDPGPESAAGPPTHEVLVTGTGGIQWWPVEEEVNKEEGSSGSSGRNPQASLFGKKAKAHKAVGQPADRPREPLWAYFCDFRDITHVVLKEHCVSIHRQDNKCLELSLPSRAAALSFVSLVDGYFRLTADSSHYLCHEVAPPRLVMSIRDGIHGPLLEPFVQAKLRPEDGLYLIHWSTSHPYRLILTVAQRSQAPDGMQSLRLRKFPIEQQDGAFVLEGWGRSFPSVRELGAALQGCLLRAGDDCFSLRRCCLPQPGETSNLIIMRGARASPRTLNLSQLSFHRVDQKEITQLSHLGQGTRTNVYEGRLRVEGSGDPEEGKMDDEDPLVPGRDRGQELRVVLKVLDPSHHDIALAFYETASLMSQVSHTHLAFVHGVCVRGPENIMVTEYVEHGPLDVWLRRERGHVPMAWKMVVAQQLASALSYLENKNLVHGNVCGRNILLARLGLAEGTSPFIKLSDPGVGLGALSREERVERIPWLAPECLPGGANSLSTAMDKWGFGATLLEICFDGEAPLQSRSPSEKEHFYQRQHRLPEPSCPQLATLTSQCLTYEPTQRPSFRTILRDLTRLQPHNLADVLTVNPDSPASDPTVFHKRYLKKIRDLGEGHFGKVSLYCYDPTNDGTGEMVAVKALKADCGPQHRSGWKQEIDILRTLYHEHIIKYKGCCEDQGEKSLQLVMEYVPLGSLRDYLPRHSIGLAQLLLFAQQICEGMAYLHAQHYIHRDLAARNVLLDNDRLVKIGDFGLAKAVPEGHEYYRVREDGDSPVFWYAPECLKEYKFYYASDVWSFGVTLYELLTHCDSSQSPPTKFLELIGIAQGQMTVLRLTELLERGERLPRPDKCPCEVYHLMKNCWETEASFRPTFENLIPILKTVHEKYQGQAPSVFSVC
UniProt Q6PHR2: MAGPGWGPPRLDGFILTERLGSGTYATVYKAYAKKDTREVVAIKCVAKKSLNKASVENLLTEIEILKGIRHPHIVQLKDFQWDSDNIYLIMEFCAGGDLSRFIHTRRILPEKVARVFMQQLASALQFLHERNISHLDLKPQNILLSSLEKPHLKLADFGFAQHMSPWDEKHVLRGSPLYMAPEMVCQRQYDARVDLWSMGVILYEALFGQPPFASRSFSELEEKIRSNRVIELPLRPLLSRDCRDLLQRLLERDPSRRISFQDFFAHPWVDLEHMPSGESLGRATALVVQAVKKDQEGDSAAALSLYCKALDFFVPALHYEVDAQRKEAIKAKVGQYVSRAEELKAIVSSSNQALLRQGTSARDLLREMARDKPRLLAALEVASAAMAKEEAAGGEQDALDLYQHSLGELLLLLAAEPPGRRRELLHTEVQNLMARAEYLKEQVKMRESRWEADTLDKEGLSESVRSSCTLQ
UniProt P00519, whole entry: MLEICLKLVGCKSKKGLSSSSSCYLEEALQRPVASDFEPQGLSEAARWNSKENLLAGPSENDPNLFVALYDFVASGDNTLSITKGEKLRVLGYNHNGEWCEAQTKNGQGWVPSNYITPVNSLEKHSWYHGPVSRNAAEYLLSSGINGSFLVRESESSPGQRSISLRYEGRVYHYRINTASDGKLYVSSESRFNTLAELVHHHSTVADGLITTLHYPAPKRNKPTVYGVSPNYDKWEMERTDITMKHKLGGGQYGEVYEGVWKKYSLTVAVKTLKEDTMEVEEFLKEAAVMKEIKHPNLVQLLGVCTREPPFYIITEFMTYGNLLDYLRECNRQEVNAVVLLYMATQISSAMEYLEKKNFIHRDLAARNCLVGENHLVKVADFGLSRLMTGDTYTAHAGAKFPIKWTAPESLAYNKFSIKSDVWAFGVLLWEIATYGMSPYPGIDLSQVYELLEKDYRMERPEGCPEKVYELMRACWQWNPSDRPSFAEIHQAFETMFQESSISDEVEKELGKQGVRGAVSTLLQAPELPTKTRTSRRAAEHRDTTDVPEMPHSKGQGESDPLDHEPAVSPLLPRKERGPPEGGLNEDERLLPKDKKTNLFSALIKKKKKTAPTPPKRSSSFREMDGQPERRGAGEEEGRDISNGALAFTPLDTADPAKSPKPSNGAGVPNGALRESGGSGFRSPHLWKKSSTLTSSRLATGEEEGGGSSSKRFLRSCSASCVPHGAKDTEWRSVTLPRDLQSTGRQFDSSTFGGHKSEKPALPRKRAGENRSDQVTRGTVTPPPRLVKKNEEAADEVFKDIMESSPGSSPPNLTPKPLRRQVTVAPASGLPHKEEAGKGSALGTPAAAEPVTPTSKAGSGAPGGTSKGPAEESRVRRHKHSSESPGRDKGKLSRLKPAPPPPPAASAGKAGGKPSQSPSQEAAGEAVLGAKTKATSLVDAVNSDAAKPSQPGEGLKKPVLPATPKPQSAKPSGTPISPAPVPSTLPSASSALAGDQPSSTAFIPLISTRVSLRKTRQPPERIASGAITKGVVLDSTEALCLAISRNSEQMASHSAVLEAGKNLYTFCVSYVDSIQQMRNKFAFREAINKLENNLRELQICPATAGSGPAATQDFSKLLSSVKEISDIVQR
UniProt P31749: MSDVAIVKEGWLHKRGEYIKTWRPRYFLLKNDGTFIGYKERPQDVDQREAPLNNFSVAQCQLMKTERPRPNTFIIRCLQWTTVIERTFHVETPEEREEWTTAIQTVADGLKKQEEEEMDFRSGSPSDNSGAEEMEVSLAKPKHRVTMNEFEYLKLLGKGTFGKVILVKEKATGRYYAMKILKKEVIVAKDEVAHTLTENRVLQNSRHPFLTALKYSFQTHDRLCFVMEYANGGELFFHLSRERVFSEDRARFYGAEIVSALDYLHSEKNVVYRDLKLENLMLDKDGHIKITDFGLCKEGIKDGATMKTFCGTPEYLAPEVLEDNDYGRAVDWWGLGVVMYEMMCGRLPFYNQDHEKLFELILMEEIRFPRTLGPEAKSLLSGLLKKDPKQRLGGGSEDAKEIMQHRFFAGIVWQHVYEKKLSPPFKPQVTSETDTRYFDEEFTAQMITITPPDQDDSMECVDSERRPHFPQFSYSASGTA

Row | SMILES | kinase-Nluc reporter destabilization hit call (RET) | kinase-Nluc reporter destabilization hit call [1] | kinase-Nluc reporter destabilization hit call (RIOK1) | kinase-Nluc reporter destabilization hit call (RIPK1) | kinase-Nluc reporter destabilization hit call (RIPK2) | kinase-Nluc reporter destabilization hit call (ROR2) | kinase-Nluc reporter destabilization hit call (RPS6KA1) | kinase-Nluc reporter destabilization hit call (SPHK1) | kinase-Nluc reporter destabilization hit call (SRC) | kinase-Nluc reporter destabilization hit call (STK24) | kinase-Nluc reporter destabilization hit call (STK38) | kinase-Nluc reporter destabilization hit call (SYK) | kinase-Nluc reporter destabilization hit call (TEC) | kinase-Nluc reporter destabilization hit call (TYK2) | kinase-Nluc reporter destabilization hit call (ULK3) | kinase-Nluc reporter destabilization hit call (YES1) | kinase-Nluc reporter destabilization hit call (ZAK) | kinase-Nluc reporter destabilization hit call (ZAP70) | number of time points (ABL1) | number of time points (AKT1)
1 | Nc1ncnc2c1c(-c1cccc(OCc3ccccc3)c1)cn2C1CC(CN2CCCC2)C1 (stereo not given) (2.5 µM) | inactive: 0 | inactive: 0 | inactive: 0 | inactive: 0 | inactive: 0 | inactive: 0 | inactive: 0 | inactive: 0 | inactive: 0 | inactive: 0 | inactive: 0 | inactive: 0 | inactive: 0 | inactive: 0 | inactive: 0 | inactive: 0 | inactive: 0 | inactive: 0 | 0 | 0
2 | C[C@H](NC(=O)/C(C#N)=C/c1cccc(Br)n1)c1ccccc1 (2.5 µM) | inactive: 0 | inactive: 0 | inactive: 0 | inactive: 0 | inactive: 0 | inactive: 0 | inactive: 0 | inactive: 0 | inactive: 0 | inactive: 0 | inactive: 0 | inactive: 0 | inactive: 0 | inactive: 0 | inactive: 0 | inactive: 0 | inactive: 0 | inactive: 0 | 0 | 0
3 | O=C(/C=C/c1ccc(O)c(O)c1)c1ccc(O)cc1O [Butein] (10 µM) | inactive: 0 | inactive: 0 | inactive: 0 | inactive: 0 | inactive: 0 | inactive: 0 | inactive: 0 | inactive: 0 | inactive: 0 | inactive: 0 | inactive: 0 | inactive: 0 | inactive: 0 | inactive: 0 | active: 1 | inactive: 0 | inactive: 0 | inactive: 0 | 3 | 0
4 | COc1cc(Oc2ccnc3cc(OC)c(OC)cc23)ccc1NC(=O)NC(C)c1nccs1 (stereo not given) (2.5 µM) | inactive: 0 | inactive: 0 | inactive: 0 | inactive: 0 | inactive: 0 | inactive: 0 | inactive: 0 | inactive: 0 | inactive: 0 | inactive: 0 | inactive: 0 | inactive: 0 | inactive: 0 | inactive: 0 | inactive: 0 | inactive: 0 | inactive: 0 | inactive: 0 | 0 | 0
5 | CN1CCN(C2CCN(C(=O)Nc3cc(Oc4ccc(NC(=O)C5(C(=O)Nc6ccc(F)cc6)CC5)c(F)c4)ccn3)CC2)CC1 [Golvatinib] (2.5 µM) | inactive: 0 | inactive: 0 | inactive: 0 | inactive: 0 | inactive: 0 | inactive: 0 | inactive: 0 | inactive: 0 | inactive: 0 | inactive: 0 | inactive: 0 | inactive: 0 | inactive: 0 | inactive: 0 | inactive: 0 | inactive: 0 | inactive: 0 | inactive: 0 | 2 | 0
6 | O=c1oc2c(O)c(O)cc3c(=O)oc4c(O)c(O)cc1c4c23 [Ellagic acid] (10 µM) | inactive: 0 | inactive: 0 | inactive: 0 | inactive: 0 | inactive: 0 | inactive: 0 | inactive: 0 | inactive: 0 | inactive: 0 | inactive: 0 | inactive: 0 | inactive: 0 | inactive: 0 | inactive: 0 | inactive: 0 | inactive: 0 | inactive: 0 | inactive: 0 | 0 | 0
7 | Cc1ccc(F)c(NC(=O)Nc2ccc(-c3cccc4[nH]nc(N)c34)cc2)c1 [Linifanib] (2.5 µM) | inactive: 0 | inactive: 0 | inactive: 0 | inactive: 0 | inactive: 0 | inactive: 0 | inactive: 0 | inactive: 0 | inactive: 0 | inactive: 0 | inactive: 0 | inactive: 0 | inactive: 0 | active: 1 | inactive: 0 | inactive: 0 | inactive: 0 | inactive: 0 | 5 | 0
8 | O=S(=O)(NCCNC/C=C/c1ccc(Br)cc1)c1cccc2cnccc12 [H-89 (dihydrochloride)] (10 µM) | inactive: 0 | inactive: 0 | inactive: 0 | inactive: 0 | inactive: 0 | inactive: 0 | inactive: 0 | inactive: 0 | inactive: 0 | inactive: 0 | inactive: 0 | inactive: 0 | inactive: 0 | inactive: 0 | inactive: 0 | inactive: 0 | inactive: 0 | inactive: 0 | 0 | 0
9 | Cc1c(C(=O)N2CCOc3ccc(-c4ccc(N)nc4)cc3C2)ccc(S(C)(=O)=O)c1F (10 µM) | inactive: 0 | inactive: 0 | inactive: 0 | inactive: 0 | inactive: 0 | inactive: 0 | inactive: 0 | inactive: 0 | inactive: 0 | inactive: 0 | inactive: 0 | inactive: 0 | inactive: 0 | inactive: 0 | inactive: 0 | inactive: 0 | inactive: 0 | inactive: 0 | 5 | 0
10 | O=C(Nc1ccc(-c2ccnc(Nc3ccc(N4CCOCC4)cc3)n2)cc1)C1CCCN1 (stereo not given) (10 µM) | inactive: 0 | inactive: 0 | inactive: 0 | inactive: 0 | inactive: 0 | inactive: 0 | inactive: 0 | inactive: 0 | inactive: 0 | inactive: 0 | inactive: 0 | inactive: 0 | inactive: 0 | inactive: 0 | inactive: 0 | inactive: 0 | inactive: 0 | inactive: 0 | 0 | 0
11 | N#Cc1ccc2[nH]c(O)c(-c3ccc(CN4CCOCC4)cn3)c2c1 (10 µM) | inactive: 0 | inactive: 0 | inactive: 0 | inactive: 0 | inactive: 0 | inactive: 0 | inactive: 0 | inactive: 0 | inactive: 0 | inactive: 0 | inactive: 0 | inactive: 0 | inactive: 0 | inactive: 0 | inactive: 0 | inactive: 0 | inactive: 0 | inactive: 0 | 0 | 0
12 | Cc1ccc2c(Nc3ccc(Cl)cc3)nccc2c1Nc1ncccc1-c1ncnc2nc[nH]c12 [Raf inhibitor 1] (2.5 µM) | inactive: 0 | inactive: 0 | inactive: 0 | inactive: 0 | inactive: 0 | inactive: 0 | inactive: 0 | inactive: 0 | inactive: 0 | inactive: 0 | inactive: 0 | inactive: 0 | inactive: 0 | inactive: 0 | inactive: 0 | inactive: 0 | inactive: 0 | inactive: 0 | 0 | 0
13 | CNc1nc(-c2ccc3c(N)n[nH]c3c2)cc(N2C[C@@H](C(=O)NC3CCCCC3)CC[C@H]2C)n1 (10 µM) | inactive: 0 | inactive: 0 | inactive: 0 | inactive: 0 | inactive: 0 | inactive: 0 | inactive: 0 | inactive: 0 | inactive: 0 | inactive: 0 | inactive: 0 | inactive: 0 | inactive: 0 | inactive: 0 | inactive: 0 | inactive: 0 | inactive: 0 | inactive: 0 | 2 | 0
14 | CC(C)c1ccc2oc3nc(N)c(C(=O)O)cc3c(=O)c2c1 [Amlexanox] (10 µM) | inactive: 0 | inactive: 0 | inactive: 0 | inactive: 0 | inactive: 0 | inactive: 0 | inactive: 0 | inactive: 0 | inactive: 0 | inactive: 0 | inactive: 0 | inactive: 0 | inactive: 0 | inactive: 0 | inactive: 0 | inactive: 0 | inactive: 0 | inactive: 0 | 0 | 0
15 | COc1ccc(Oc2cc(NCCC(F)(F)F)c3ncc(-c4ccc(C(=O)NC5CC5)c(C)c4)n3n2)c(F)c1F (2.5 µM) | inactive: 0 | inactive: 0 | inactive: 0 | inactive: 0 | inactive: 0 | inactive: 0 | inactive: 0 | inactive: 0 | inactive: 0 | inactive: 0 | inactive: 0 | inactive: 0 | inactive: 0 | inactive: 0 | inactive: 0 | inactive: 0 | inactive: 0 | inactive: 0 | 0 | 0
16 | C=CC(=O)N1CCC[C@@H](n2nc(-c3ccc(Oc4ccccc4)cc3)c(C(N)=O)c2N)C1 [Btk inhibitor 2] (10 µM) | inactive: 0 | inactive: 0 | inactive: 0 | inactive: 0 | inactive: 0 | inactive: 0 | inactive: 0 | inactive: 0 | inactive: 0 | inactive: 0 | inactive: 0 | inactive: 0 | inactive: 0 | inactive: 0 | inactive: 0 | inactive: 0 | inactive: 0 | inactive: 0 | 0 | 0
17 | NS(=O)(=O)c1ccc(Nc2nc(OCC3CCCCC3)c3[nH]cnc3n2)cc1 (10 µM) | inactive: 0 | inactive: 0 | inactive: 0 | inactive: 0 | inactive: 0 | inactive: 0 | inactive: 0 | inactive: 0 | inactive: 0 | inactive: 0 | inactive: 0 | inactive: 0 | inactive: 0 | inactive: 0 | inactive: 0 | inactive: 0 | inactive: 0 | inactive: 0 | 0 | 0
18 | C=CC(=O)N1C[C@H](Nc2ncnc3[nH]ccc23)CC[C@@H]1C [Ritlecitinib] (10 µM) | inactive: 0 | inactive: 0 | inactive: 0 | inactive: 0 | inactive: 0 | inactive: 0 | inactive: 0 | inactive: 0 | inactive: 0 | inactive: 0 | inactive: 0 | inactive: 0 | inactive: 0 | inactive: 0 | inactive: 0 | inactive: 0 | inactive: 0 | inactive: 0 | 0 | 0
19 | CC(C)n1cnc2c(NCc3cccc(C(F)(F)F)c3)ncnc21 [Longdaysin] (10 µM) | inactive: 0 | inactive: 0 | inactive: 0 | inactive: 0 | inactive: 0 | inactive: 0 | inactive: 0 | inactive: 0 | inactive: 0 | inactive: 0 | inactive: 0 | inactive: 0 | inactive: 0 | inactive: 0 | inactive: 0 | inactive: 0 | inactive: 0 | inactive: 0 | 0 | 0

Source: the supplement of paper PMC12823440, “Inhibitors supercharge kinase turnover through native proteolytic circuits” (Nature, 2025)
